{"sequences": {"note": "Amino acid sequences for entries named in this document (tags omitted). Residues count along the entry.", "UniProt Q9R1C7, residues 140-173": "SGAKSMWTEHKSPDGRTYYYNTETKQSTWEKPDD"}, "source": "patent US20030170683A1", "key": {"[1]": {"molecular_target": "WW domain of FBP11 (UniProt Q9R1C7)", "assay": "radiolabeled GST-peptide probe on a western blot of WW domains (far-western)"}, "[2]": {"molecular_target": "T1, WW domain of FBP21 (UniProt Q61048)", "T1 sequence (looked up)": "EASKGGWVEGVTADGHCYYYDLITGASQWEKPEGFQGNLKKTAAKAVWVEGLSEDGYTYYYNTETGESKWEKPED", "assay": "radiolabeled GST-peptide probe on a western blot of WW domains (far-western)"}}, "note": "Results are given in words; binding and its absence hold for the method and conditions named. Some results given as binding are weak or reduced against the parent protein; the word gives no strength. Where a sequence is shown, tags or fusion partners need not be part of it.", "data": [{"binder": "GMGIPPPPPLPGVGIPPPPPLP (peptide, not shown: a dimerising Fc or GST, radiolabeled (label and position not stated))", "values": [{"measurement": "binding", "setting": "[1]", "result": "binds"}, {"measurement": "binding", "setting": "[2]", "result": "binds"}]}]}
